{"source": "patent US20250099420A1", "about": "“SMALL MOLECULE MODULATORS OF GPR139 COMPLEX” (University of Florida Research Foundation, Incorporated, priority 2022, published 2025)", "tested_on": "parental HEK cells", "assay": "HEK parental Antagonist Counterscreen Assay (non-transfected cells, acetylcholine control)", "assay_type": "cell-based", "settings": "acetylcholine as control, scientific notation, molarity", "note": "pEC50: −log10 of the molar value. For at least one compound, name, drawing or mass did not settle the structure."}
{"compound": "O=C(Nc1ccccc1C(=O)O)c1ccc(Oc2ccc([N+](=O)[O-])cc2)cc1", "note": "[SR-01000201144]", "values": [{"measurement": "pEC50", "result": 5.16}]}
{"compound": "COc1ccc(C2=NN(C3CCCCCC3)C(=O)[C@@H]3CC=CC[C@@H]23)cc1OCCCCOc1ccc(-c2nn[nH]n2)cc1", "note": "[SR-05000022540]", "values": [{"measurement": "pEC50", "result": "< 4.85"}]}
{"compound": "Cc1ccc(-c2cn(-c3ccccc3)c(SCC(=O)Nc3ccccc3C)n2)cc1", "note": "[SR-01000555444]", "values": [{"measurement": "pEC50", "result": "< 4.96"}]}
{"compound": "Cc1ccc(-n2cc(-c3ccccc3)nc2SCC(=O)Nc2ccc(F)cc2)cc1", "note": "[SR-01000555461]", "values": [{"measurement": "pEC50", "result": "< 4.85"}]}
